In the supplement of paper PMC10849652:
This is one part of the list.

Amino acid sequences for entries named in this document (tags omitted). A change or cut given only in a name is not applied to a line headed by its entry.
UniProt Q92974: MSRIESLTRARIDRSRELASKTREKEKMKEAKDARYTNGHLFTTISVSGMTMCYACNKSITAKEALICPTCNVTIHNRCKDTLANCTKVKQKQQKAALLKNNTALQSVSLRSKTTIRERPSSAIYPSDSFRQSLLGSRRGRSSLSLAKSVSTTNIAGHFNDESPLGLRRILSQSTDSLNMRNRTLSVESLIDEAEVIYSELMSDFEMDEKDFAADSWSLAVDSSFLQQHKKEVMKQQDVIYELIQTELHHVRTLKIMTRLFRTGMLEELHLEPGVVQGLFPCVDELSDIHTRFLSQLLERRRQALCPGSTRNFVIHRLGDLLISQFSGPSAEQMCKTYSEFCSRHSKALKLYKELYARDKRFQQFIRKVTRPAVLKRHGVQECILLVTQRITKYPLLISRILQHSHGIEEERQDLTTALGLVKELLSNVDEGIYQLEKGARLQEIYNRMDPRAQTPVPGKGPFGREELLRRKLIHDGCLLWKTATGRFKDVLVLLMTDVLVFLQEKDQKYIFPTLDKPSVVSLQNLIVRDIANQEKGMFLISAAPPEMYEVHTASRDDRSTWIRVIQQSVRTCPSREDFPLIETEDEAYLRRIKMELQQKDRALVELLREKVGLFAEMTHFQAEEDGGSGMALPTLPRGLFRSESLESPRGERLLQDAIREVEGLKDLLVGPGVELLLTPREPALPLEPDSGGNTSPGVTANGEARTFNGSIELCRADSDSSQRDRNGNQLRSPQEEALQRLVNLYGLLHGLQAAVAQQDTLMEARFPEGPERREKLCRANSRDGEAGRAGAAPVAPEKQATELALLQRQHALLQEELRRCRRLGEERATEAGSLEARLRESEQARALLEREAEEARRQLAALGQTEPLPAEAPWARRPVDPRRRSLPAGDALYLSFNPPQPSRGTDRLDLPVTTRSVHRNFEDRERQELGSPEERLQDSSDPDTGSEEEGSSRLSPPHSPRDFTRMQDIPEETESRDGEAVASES
UniProt P02656: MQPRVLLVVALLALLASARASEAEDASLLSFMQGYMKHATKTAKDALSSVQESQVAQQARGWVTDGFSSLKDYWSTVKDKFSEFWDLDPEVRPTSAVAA
UniProt Q0VD83: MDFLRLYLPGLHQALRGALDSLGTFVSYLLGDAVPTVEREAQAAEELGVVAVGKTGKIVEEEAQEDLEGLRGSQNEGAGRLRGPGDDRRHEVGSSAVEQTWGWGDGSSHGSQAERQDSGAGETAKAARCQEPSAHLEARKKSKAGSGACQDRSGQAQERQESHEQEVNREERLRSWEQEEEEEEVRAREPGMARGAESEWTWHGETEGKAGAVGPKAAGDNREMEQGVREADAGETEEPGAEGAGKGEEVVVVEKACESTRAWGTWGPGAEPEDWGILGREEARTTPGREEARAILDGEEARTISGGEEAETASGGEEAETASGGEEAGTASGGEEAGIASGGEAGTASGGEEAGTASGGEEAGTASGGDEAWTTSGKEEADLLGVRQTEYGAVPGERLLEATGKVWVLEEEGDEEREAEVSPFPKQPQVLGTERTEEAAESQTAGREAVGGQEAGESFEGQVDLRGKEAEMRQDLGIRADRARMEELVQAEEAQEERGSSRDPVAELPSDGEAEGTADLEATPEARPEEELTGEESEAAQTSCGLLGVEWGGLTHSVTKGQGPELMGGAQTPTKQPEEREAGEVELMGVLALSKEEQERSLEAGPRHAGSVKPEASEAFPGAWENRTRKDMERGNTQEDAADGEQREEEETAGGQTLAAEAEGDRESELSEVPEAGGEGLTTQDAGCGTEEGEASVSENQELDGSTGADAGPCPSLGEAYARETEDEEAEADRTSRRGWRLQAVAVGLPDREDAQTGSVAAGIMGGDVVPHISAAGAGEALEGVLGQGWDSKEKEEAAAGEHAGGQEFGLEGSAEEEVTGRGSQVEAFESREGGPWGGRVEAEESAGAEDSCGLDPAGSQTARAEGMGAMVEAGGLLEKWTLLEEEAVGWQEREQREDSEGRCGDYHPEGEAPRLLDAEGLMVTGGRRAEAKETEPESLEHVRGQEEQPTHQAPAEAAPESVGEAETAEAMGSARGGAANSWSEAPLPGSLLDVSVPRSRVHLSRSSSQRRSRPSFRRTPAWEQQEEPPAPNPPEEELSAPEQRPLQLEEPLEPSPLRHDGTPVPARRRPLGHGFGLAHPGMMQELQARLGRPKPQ
UniProt P61966: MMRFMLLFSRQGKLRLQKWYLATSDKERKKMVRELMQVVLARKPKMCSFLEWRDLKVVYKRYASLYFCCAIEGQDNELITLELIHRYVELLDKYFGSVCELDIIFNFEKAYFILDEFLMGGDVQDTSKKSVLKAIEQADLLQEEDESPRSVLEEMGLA
UniProt Q9BZZ5: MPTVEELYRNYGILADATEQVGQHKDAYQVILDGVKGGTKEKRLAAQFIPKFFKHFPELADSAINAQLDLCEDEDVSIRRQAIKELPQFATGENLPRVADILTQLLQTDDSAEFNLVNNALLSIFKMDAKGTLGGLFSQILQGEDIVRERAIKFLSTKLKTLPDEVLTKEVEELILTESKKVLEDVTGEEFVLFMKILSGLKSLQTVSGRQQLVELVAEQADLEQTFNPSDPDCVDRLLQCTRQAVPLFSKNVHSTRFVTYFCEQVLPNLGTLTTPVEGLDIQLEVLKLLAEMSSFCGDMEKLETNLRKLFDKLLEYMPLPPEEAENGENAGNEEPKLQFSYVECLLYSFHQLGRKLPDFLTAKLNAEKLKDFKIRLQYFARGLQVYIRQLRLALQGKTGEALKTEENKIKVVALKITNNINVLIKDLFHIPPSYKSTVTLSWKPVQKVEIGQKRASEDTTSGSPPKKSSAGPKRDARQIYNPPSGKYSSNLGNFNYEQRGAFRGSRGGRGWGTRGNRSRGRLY
UniProt P02647, whole entry, looked up: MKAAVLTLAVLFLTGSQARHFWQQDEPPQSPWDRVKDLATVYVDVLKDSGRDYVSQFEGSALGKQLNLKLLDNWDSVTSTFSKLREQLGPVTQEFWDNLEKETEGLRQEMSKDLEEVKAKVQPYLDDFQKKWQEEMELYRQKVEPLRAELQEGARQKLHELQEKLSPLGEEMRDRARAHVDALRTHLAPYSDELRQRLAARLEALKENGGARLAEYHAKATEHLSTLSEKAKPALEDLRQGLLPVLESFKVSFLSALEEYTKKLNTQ
UniProt Q9UJX5, whole entry, looked up: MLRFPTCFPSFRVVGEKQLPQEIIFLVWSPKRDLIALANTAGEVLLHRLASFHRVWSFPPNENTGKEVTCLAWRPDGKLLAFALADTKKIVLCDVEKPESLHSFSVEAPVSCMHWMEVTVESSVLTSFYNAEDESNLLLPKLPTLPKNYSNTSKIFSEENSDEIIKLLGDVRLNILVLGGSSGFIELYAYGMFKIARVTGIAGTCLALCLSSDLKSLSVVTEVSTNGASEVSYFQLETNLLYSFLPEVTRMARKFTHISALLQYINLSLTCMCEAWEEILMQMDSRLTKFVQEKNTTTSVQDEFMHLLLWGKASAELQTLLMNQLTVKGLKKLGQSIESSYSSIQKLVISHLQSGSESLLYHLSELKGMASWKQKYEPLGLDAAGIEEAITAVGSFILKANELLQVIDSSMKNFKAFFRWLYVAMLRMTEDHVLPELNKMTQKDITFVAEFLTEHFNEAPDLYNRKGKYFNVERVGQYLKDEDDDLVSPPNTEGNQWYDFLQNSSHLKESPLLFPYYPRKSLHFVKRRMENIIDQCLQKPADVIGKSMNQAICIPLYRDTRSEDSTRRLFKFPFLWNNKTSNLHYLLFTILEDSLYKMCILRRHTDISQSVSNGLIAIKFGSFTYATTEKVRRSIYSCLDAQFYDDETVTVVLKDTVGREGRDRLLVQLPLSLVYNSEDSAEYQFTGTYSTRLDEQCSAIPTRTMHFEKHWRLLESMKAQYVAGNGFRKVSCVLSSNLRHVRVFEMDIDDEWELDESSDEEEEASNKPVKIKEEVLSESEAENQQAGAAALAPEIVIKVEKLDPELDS
UniProt Q9H0R1: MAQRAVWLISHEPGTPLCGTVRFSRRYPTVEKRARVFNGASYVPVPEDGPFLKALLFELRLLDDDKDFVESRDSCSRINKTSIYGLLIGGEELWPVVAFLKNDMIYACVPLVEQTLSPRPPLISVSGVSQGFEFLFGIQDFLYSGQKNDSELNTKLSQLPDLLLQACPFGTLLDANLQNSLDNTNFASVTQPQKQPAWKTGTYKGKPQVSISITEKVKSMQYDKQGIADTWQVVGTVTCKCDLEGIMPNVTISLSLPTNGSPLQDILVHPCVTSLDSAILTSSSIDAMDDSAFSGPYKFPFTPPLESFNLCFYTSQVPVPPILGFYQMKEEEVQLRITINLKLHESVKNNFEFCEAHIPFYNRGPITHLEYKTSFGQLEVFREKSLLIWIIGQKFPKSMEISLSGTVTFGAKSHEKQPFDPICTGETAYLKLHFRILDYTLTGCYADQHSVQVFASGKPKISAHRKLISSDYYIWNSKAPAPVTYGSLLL
UniProt Q9Y6D5: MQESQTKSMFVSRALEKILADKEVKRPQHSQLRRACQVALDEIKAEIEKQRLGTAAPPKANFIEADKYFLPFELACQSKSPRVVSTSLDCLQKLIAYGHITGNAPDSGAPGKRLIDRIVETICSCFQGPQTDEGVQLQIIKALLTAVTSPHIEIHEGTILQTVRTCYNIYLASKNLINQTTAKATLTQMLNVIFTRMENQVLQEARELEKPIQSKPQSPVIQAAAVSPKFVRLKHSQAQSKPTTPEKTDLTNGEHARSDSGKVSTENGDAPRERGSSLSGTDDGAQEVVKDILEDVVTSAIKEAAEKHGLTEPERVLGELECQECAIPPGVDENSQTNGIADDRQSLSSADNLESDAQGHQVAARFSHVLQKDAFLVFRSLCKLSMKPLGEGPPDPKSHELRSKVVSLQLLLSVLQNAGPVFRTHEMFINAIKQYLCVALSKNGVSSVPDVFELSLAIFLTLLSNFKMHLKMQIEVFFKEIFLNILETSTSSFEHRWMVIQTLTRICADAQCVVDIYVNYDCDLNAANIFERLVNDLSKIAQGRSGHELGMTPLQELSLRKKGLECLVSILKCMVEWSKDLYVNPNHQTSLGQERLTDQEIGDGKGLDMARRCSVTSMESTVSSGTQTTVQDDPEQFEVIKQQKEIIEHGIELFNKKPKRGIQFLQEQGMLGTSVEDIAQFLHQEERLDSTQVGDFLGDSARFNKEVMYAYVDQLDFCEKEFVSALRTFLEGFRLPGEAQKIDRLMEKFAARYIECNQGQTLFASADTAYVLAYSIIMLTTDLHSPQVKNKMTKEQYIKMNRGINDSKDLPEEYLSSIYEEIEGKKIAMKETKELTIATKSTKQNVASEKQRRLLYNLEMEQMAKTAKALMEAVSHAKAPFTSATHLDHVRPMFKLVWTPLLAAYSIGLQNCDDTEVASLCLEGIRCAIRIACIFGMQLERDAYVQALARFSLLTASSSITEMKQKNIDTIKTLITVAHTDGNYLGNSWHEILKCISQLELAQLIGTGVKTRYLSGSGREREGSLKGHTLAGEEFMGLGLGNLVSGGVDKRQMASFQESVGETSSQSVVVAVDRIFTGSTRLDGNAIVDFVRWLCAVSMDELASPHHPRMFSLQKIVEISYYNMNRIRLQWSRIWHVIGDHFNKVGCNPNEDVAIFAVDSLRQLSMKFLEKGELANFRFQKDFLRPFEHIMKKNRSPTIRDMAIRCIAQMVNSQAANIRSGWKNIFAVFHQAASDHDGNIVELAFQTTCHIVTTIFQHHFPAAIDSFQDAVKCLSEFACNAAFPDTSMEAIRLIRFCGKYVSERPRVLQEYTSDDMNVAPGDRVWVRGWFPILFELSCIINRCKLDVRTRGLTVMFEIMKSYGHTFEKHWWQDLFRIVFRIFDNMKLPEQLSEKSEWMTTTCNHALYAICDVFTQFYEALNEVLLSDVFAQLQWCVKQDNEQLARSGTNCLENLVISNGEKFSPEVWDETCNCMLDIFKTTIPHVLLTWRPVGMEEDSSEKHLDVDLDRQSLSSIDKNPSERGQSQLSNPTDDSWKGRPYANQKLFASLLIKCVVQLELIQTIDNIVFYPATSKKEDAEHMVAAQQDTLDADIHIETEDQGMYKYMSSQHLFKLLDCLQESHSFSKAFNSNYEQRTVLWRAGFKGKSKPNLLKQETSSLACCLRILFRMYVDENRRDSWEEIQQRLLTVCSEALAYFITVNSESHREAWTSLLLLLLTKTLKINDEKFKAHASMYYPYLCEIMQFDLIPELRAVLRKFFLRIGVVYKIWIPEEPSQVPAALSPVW
UniProt Q8N6D5: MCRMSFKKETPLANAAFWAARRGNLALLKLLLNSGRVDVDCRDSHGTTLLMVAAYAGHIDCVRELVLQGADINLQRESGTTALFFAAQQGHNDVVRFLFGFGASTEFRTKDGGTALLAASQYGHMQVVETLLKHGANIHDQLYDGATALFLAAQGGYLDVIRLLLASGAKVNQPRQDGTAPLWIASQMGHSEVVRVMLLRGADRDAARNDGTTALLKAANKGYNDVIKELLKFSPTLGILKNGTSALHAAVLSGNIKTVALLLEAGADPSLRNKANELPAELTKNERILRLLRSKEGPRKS

Key:
Assay in all cases: log2 fold change, soluble protein after heating vs DMSO (PISA); higher = thermal stabilisation; K562 cells, 10 uM, 30 min; active = over 0.2 and 3.5 SD of the protein, either way, in both replicates (recomputed)
[1] = compound: C1=CC=C(C=C1)[C@H](COC2=CC3=C(C=C2)NC(=O)N3)NC(=O)C4=CC=CN(C4=O)CC5=CC(=C(C=C5)F)F
Procedure, shortened: (§1)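 Soluble protein was defined as the supernatant after 21,000xg for 90 min. It came from K562 cells at 2×10^6 cells/mL given 10 μM compound for 30 min, heated in aliquots for 3 min across 48°C-58°C, pooled, and extracted in PBS with 0.5% NP-40 at 4°C, and was quantified by TMTpro 16plex LC-MS/MS with equalised channel sums. Thermal stability against control samples, from duplicates, is reported as log2 fold change.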

[2] = compound: CC1=C(SC2=C1C(=N[C@H](C3=NN=C(N32)C)CC(=O)N)C4=CC=C(C=C4)Cl)C
Procedure, shortened: as §1

[3] = compound: CC1=C2C(=CC=C1)N=C(N(C2=O)C3=CC=CC=C3C)CN4C=NC5=C(N=CN=C54)N
Procedure, shortened: as §1

[4] = compound: Cc1sc2c(c1C)C(c1ccc(Cl)cc1)=N[C@@H](CC(=O)OC(C)(C)C)c1nnc(C)n1-2
Procedure, shortened: as §1

[5] = compound: c1ccc([C@@H]2C[C@H]2NC2CCNCC2)cc1
Procedure, shortened: as §1

Measured: log2 fold change

ARHGEF2 (UniProt Q92974)
inactive: [1] 0.008 | [2] -0.255 | [3] -0.037 | [4] 0.224 | [5] -0.014

ARF4 (UniProt P18085)
inactive: [1] 0 | [2] 0.045 | [3] 0.053 | [4] -0.082 | [5] -0.015

APOC3 (UniProt P02656)
inactive: [1] -0.171 | [2] 0.009 | [4] 0.059 | [5] -0.221

ARAF (UniProt P10398)
inactive: [1] -0.05 | [2] -0.003 | [3] 0.178 | [4] 0.022 | [5] 0.027

APOM (UniProt O95445)
inactive: [1] -0.012 | [2] -0.109 | [3] 0.044 | [4] 0.072 | [5] 0.18

ARFIP1 (UniProt P53367)
inactive: [1] 0.04 | [2] 0.042 | [3] 0.051 | [4] -0.065 | [5] -0.03

APOBR (UniProt Q0VD83)
inactive: [1] 0.036 | [2] 0.014 | [3] 0.028 | [4] 0.028 | [5] 0.055

AP1S1 (UniProt P61966)
inactive: [1] -0.007 | [2] 0.063 | [3] 0.124 | [4] -0.025 | [5] -0.048

APRT (UniProt P07741)
inactive: [1] 0.023 | [2] 0.052 | [3] 0.071 | [4] -0.042 | [5] 0.005

API5 (UniProt Q9BZZ5)
inactive: [1] 0.014 | [2] 0.059 | [3] -0.001 | [4] -0.02 | [5] -0.003

ANXA7 (UniProt P20073)
inactive: [1] -0.026 | [2] 0.028 | [3] 0.047 | [4] -0.009 | [5] 0

ANAPC2 (UniProt Q9UJX6)
inactive: [1] -0.017 | [2] 0.016 | [3] -0.005 | [4] 0.017 | [5] -0.049

ANO10 (UniProt Q9NW15)
inactive: [1] 0.025 | [2] 0.06 | [3] 0.053 | [4] -0.064 | [5] -0.022

ANAPC5 (UniProt Q9UJX4)
inactive: [1] -0.028 | [2] 0.015 | [3] 0.049 | [4] 0.064 | [5] 0.003

APOA1 (UniProt P02647)
inactive: [1] -0.123 | [2] -0.102 | [3] 0.092 | [4] 0.083 | [5] -0.169

APLP2 (UniProt Q06481)
inactive: [1] 0.003 | [2] -0.003 | [3] 0 | [4] 0.036 | [5] 0.038

ANAPC4 isoform 3 (UniProt Q9UJX5)
inactive: [1] 0.018 | [2] 0.025 | [3] 0.007 | [4] -0.032 | [5] 0.023

Random excerpt: 2 entries already listed, in no set order.
ANAPC5 (UniProt Q9UJX4)
inactive: [1] -0.028 | [2] 0.015 | [3] 0.049 | [4] 0.064 | [5] 0.003

ARHGEF2 (UniProt Q92974)
inactive: [1] 0.008 | [2] -0.255 | [3] -0.037 | [4] 0.224 | [5] -0.014

Later entries.

AP5M1 (UniProt Q9H0R1)
inactive: [1] 0.038 | [2] -0.077 | [3] -0.063 | [5] 0.124

ARFGAP1 (UniProt Q8N6T3)
inactive: [1] 0.033 | [2] 0.077 | [3] 0.074 | [4] -0.064 | [5] -0.034

ANXA5 (UniProt P08758)
inactive: [1] -0.036 | [2] 0.04 | [3] 0.024 | [4] 0.021 | [5] -0.022

ANXA1 (UniProt P04083)
inactive: [1] -0.091 | [2] 0.039 | [3] 0.052 | [4] -0.002 | [5] -0.021

AP2S1 (UniProt P53680)
inactive: [1] -0.013 | [2] -0.007 | [3] -0.036 | [4] 0.037 | [5] 0.043

APC (UniProt P25054)
inactive: [1] 0.07 | [2] -0.119 | [3] 0.108 | [4] 0.016 | [5] 0.056

ARFIP2 (UniProt P53365)
inactive: [1] -0.204 | [2] 0.014 | [3] -0.035 | [4] -0.086 | [5] 0.015

AP2M1 (UniProt C9JTK4)
inactive: [1] -0.113 | [2] 0.083 | [3] 0.131 | [4] 0.136 | [5] -0.076

ARFGEF2 (UniProt Q9Y6D5)
inactive: [1] -0.032 | [2] 0.052 | [3] 0.029 | [4] 0.063 | [5] -0.017

ANKRD29 (UniProt Q8N6D5)
inactive: [1] -0.012 | [2] 0.199 | [3] 0.248 | [4] -0.029 | [5] -0.079

ARHGEF10 (UniProt O15013)
inactive: [1] -0.169 | [3] 0.308

AP1B1 isoform 3 (UniProt Q10567)
inactive: [2] -0.031 | [3] -0.235 | [4] -0.062 | [5] 0.165

APPBP2 (UniProt Q92624)
inactive: [1] -0.035 | [2] -0.029 | [4] -0.027 | [5] -0.151

ANKRD16 (UniProt Q6P6B7)
inactive: [1] 0.214 | [3] 0.264

APOA4 (UniProt P06727)
inactive: [1] 0.026 | [3] 0.156 | [4] 0.178

ARHGAP22 isoform 2 (UniProt Q7Z5H3)
inactive: [3] 0.044 | [4] 0.048
